Patent publication US20150217006A1, “AL-F-18-LABELED, AL-F-19-LABELED AND GA-68-LABELED GASTRIN-RELEASING PEPTIDE RECEPTOR (GRPR)-ANTAGONISTS FOR IMAGING OF PROSTATE CANCER” (Immunomedics, Inc., priority 2014, published 2015)
At least one peptide structure holds a part that was inferred or is arguable (an end, a ring closure or a residue).

Tested on: GRPR-positive PC-3 tumors
Assay: Small-animal PET/CT and biodistribution in mice bearing s.c. PC-3 xenografts
Conditions: co-injection of 100-fold excess of unlabeled JMV4168 or JMV5132

Structure (SMILES): CC(C)C[C@H](NC(=O)C[C@H](O)[C@H](CC(C)C)NC(=O)[C@H](Cc1c[nH]cn1)NC(=O)CNC(=O)[C@@H](NC(=O)[C@H](C)NC(=O)[C@H](Cc1c[nH]c2ccccc12)NC(=O)[C@H](CCC(N)=O)NC(=O)[C@@H](Cc1ccccc1)NC(=O)CCNC(=O)CCNC(=O)CN1CCN(CC(=O)O)CCN(CC(=O)O)CCN(CC(=O)O)CC1)C(C)C)C(N)=O [^68Ga-JMV4168, metal not drawn]
- tumor uptake after co-injection of excess unlabeled peptide (GRPR-specificity): significantly reduced
